Assay results reported in PubChem BioAssay AID256 (DTP/NCI, 2004).
The list does not hold the whole screen: it is rich in T/C values a quarter to a half above the control, in often repeated tests (any T/C) and in doses without a T/C. Other doses and runs of a compound stand elsewhere. T/C gives the treated animals as a percentage of the vehicle group. Some doses have a count of surviving animals in place of a T/C: the source files T/C as zero there, which appears to mark a toxic dose or a test without result, not a measured value. Some doses without a T/C left all or most animals alive at the check, yet need not have been tolerated: the source hardly ever lists a survival T/C far under the control, and the zero likely stands for such cases as well. Survivors were counted at the toxicity check, usually on the fifth day, unless a day is given; later deaths do not show. Schedules are NCI's codes, taken here to give the interval after Q, in days (D) or hours (H), and the number of doses after X. Some entries were tested several times; the results are listed from low to high. Where survival is the endpoint, the PubChem record calls one and a half times the control and up active, and a quarter to a half above the control has no call in these data; cut-offs in other NCI protocols can differ. Some T/C values carry the count of animals alive at the toxicity check (mostly the fifth day); where none is given, no animal had died by that day. Marks such as (2×) count equal records among those shown.

Tested on: CD2F1 mice, L1210 leukemia ip, survival T/C
Test: NCI In Vivo Anticancer Drug Screen. Data for tumor model L1210 Leukemia (intraperitoneal) in CD2F1 (CDF1) mice
Conditions: T/C endpoint: mean survival time, higher T/C = longer survival
Outline: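 Implant tumor; dose compound or vehicle; measure endpoint in both groups; report treated divided by control.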

[1] = dose: 100.0 mg/kg/injection, schedule: Q04DX003 (ip), vehicle: saline
[2] = dose: 400.0 mg/kg/injection, schedule: Q04DX003 (ip), vehicle: saline
[3] = dose: 400.0 mg/kg/injection, schedule: Q01DX009 (ip), vehicle: saline with Tween-80
[4] = dose: 200.0 mg/kg/injection, schedule: Q04DX003 (ip), vehicle: saline with Tween-80
[5] = dose: 200.0 mg/kg/injection, schedule: Q01DX009 (ip), vehicle: other

With O=C(CI)Nc1ccc(Br)cc1 the survivor count [1] was 5 of 6, the survivor count (dose: 200.0 mg/kg/injection, schedule: Q04DX003 (ip), vehicle: saline) was 0 of 6 and the survivor count [2] was 0 of 6.
CCCC1(CCC)NC(=O)NC1=O was tested, and the survivor count (dose: 400.0 mg/kg/injection, schedule: Q04DX003 (ip), vehicle: other) was 5 of 6.
In the case of NC(N)=N/N=C/c1c(O)ccc2ccccc12, the survivor count (dose: 250.0 mg/kg/injection, schedule: Q01DX010 (oral), vehicle: saline) is reported as 2 of 6.
With C/C=C\C[P+](c1ccccc1)(c1ccccc1)c1ccccc1 the survivor count (dose: 100.0 mg/kg/injection, schedule: Q01DX001 (ip), vehicle: saline with Tween-80) was 0 of 6, the survivor count (dose: 200.0 mg/kg/injection, schedule: Q01DX001 (ip), vehicle: saline with Tween-80) was 0 of 6 and the survivor count (dose: 400.0 mg/kg/injection, schedule: Q01DX001 (ip), vehicle: saline with Tween-80) was 0 of 6.
CCCCCCCCN(CCCCCCCC)CC(O)c1ccc2c(c1)Sc1ccccc1O2 (configuration not stated) was tested, and the survivor count (dose: 300.0 mg/kg/injection, schedule: Q01DX001 (ip), vehicle: saline) was 1 of 6.
For CCN1CCN(CC)C1c1ccccc1, the survivor count [3] was 3 of 6.
With O=C1NCC(Br)C(=O)N1 (configuration not stated) the survivor count [3] was 4 of 6.
With CCOC(=O)C1(c2ccccc2)C(=O)Oc2ccccc21 (configuration not stated) the survivor count (dose: 200.0 mg/kg/injection, schedule: Q01DX009 (ip), vehicle: saline with Tween-80) was 6 of 6.
NC(=O)/C=C/C(=O)c1c(Cl)cccc1Cl was tested, and the survivor count (dose: 25.0 mg/kg/injection, schedule: Q01DX009 (ip), vehicle: saline with Tween-80) was 0 of 10 and 0 of 6.
With S=c1nc(-c2ccncc2)[nH][nH]1 the survivor count [4] was 3 of 6 and the survivor count (dose: 400.0 mg/kg/injection, schedule: Q04DX003 (ip), vehicle: saline with Tween-80) was 3 of 6.
For COc1cc2cc3c4cc(OC)c(OC)cc4cc[n+]3c(C)c2cc1OC (tested in a mixture with another compound), the T/C (dose: 12.5 mg/kg/injection, schedule: Q01DX009 (ip), vehicle: other) was 100, 110, 120, 125, 129 % of control, the T/C (dose: 25.0 mg/kg/injection, schedule: Q01DX009 (ip), vehicle: other) was 113, 121, 126, 135 [5 of 6 alive], 137 % of control [5 of 6 alive] and the T/C (dose: 25.0 mg/kg/injection, schedule: Q01DX009 (ip), vehicle: saline) was 129 % of control. For the same compound, the T/C (dose: 50.0 mg/kg/injection, schedule: Q01DX009 (ip), vehicle: other) was 114, 125 [5 of 6 alive], 132, 140, 163 % of control [5 of 6 alive], the T/C (dose: 66.0 mg/kg/injection, schedule: Q04DX003 (ip), vehicle: saline with Tween-80) was 126 % of control and the T/C (dose: 100.0 mg/kg/injection, schedule: Q01DX009 (ip), vehicle: other) was 86, 120 [5 of 6 alive], 131 (2×), 161 % of control [5 of 6 alive]. For the same compound, the survivor count (dose: 100.0 mg/kg/injection, schedule: Q01DX009 (ip), vehicle: saline) was 6 of 6, the T/C (dose: 100.0 mg/kg/injection, schedule: Q04DX003 (ip), vehicle: saline with Tween-80, evaluated on day 20) was 131 % of control and the T/C (dose: 100.0 mg/kg/injection, schedule: Q04DX003 (ip), vehicle: saline with Tween-80, evaluated on day 30) was 125 % of control. For the same compound, the T/C [1] was 135 % of control, the survivor count (dose: 150.0 mg/kg/injection, schedule: Q01DX009 (ip), vehicle: saline) was 1 of 6 and the T/C (dose: 150.0 mg/kg/injection, schedule: Q04DX003 (ip), vehicle: saline with Tween-80) was 131 % of control. For the same compound, the T/C [5] was 120 % of control, the survivor count [5] was 1 of 6, 4 of 6, 5 of 6 and the survivor count (dose: 200.0 mg/kg/injection, schedule: Q01DX009 (ip), vehicle: saline) was 0 of 6. The T/C [4] was 147 % of control and the survivor count [2] was 1 of 6.
In the case of CCOC(=O)/C(C#N)=C/P(=O)(OCC)OCC, the survivor count (dose: 25.0 mg/kg/injection, schedule: Q04DX003 (ip), vehicle: Klucel (hydroxypropylcellulose) (HPC)) is reported as 3 of 6, the survivor count (dose: 50.0 mg/kg/injection, schedule: Q04DX003 (ip), vehicle: Klucel (hydroxypropylcellulose) (HPC)) is reported as 4 of 6 and the survivor count (dose: 100.0 mg/kg/injection, schedule: Q04DX003 (ip), vehicle: Klucel (hydroxypropylcellulose) (HPC)) is reported as 2 of 6.
In the case of C1=C(c2ccccc2)NN=C(c2ccccc2)C1c1ccccc1 (configuration not stated), the survivor count (dose: 12.5 mg/kg/injection, schedule: Q01DX001 (ip), vehicle: saline with Tween-80) is reported as 6 of 6 and the survivor count (dose: 25.0 mg/kg/injection, schedule: Q01DX001 (ip), vehicle: saline with Tween-80) is reported as 6 of 6.
